Source: paper PMC12756210, “Calcium signaling-mediated phosphorylation controls zinc allocation in Arabidopsis” (Stress Biology, 2025)
No constants are given. Whether binding was seen depends on the method and setting. Tags and fused reporters may be left off the sequences shown.

The binders below were run against GST alone (assay: pull-down; GST-ZIP2-Loop (or GST) on glutathione beads incubated with His-CIPK3/9/23/26; eluate blotted with anti-His antibody; both purified).

Row | binding | Binder
1 | no binding | CIPK9-His (protein, UniProt Q9MAM1 1-447) MSGSRRKATPASRTRVGNYEMGRTLGEGSFAKVKYAKNTVTGDQAAIKILDREKVFRHKMVEQLKREISTMKLIKHPNVVEIIEVMASKTKIYIVLELVNGGELFDKIAQQGRLKEDEARRYFQQLINAVDYCHSRGVYHRDLKPENLILDANGVLKVSDFGLSAFSRQVREDGLLHTACGTPNYVAPEVLSDKGYDGAAADVWSCGVILFVLMAGYLPFDEPNLMTLYKRICKAEFSCPPWFSQGAKRVIKRILEPNPITRISIAELLEDEWFKKGYKPPSFDQDDEDITIDDVDAAFSNSKECLVTEKKEKPVSMNAFELISSSSEFSLENLFEKQAQLVKKETRFTSQRSASEIMSKMEETAKPLGFNVRKDNYKIKMKGDKSGRKGQLSVATEVFEVAPSLHVVELRKTGGDTLEFHKFYKNFSSGLKDVVWNTDAAAEEQKQ
2 | no binding | CIPK26-His (protein, UniProt Q84VQ3 1-439) MNRPKVQRRVGKYEVGKTLGQGTFAKVRCAVNTETGERVALKILDKEKVLKHKMAEQIRREICTMKLINHPNVVRLYEVLASKTKIYIVLEFGTGGELFDKIVHDGRLKEENARKYFQQLINAVDYCHSRGVYHRDLKPENLLLDAQGNLKVSDFGLSALSRQVRGDGLLHTACGTPNYAAPEVLNDQGYDGATADLWSCGVILFVLLAGYLPFEDSNLMTLYKKIIAGEYHCPPWLSPGAKNLIVRILDPNPMTRITIPEVLGDAWFKKNYKPAVFEEKEEANLDDVDAVFKDSEEHHVTEKKEEQPTSMNAFELISMSRALDLGNLFEEEEGFKRETRFAAKGAANDLVQKIEEASKPLGFDIQKKNYKMRLENVTAGRKGNLRVATEIFQVSPSLHMIEVRKTKGDTLEFHKFYKKLSTSLNDVVWKSGESSGLSK
3 | no binding | CIPK3-His (protein, UniProt Q2V452 1-441) MNRRQQVKRRVGKYEVGRTIGEGTFAKVKFARNSETGEPVALKILDKEKVLKHKMAEQIRREIATMKLIKHPNVVQLYEVMASKTKIFIILEYVTGGELFDKIVNDGRMKEDEARRYFQQLIHAVDYCHSRGVYHRDLKPENLLLDSYGNLKISDFGLSALSQQVRDDGLLHTSCGTPNYVAPEVLNDRGYDGATADMWSCGVVLYVLLAGYLPFDDSNLMNLYKKISSGEFNCPPWLSLGAMKLITRILDPNPMTRVTPQEVFEDEWFKKDYKPPVFEERDDSNMDDIDAVFKDSEEHLVTEKREEQPAAINAFEIISMSRGLNLENLFDPEQEFKRETRITLRGGANEIIEKIEEAAKPLGFDVQKKNYKMRLENVKAGRKGNLNVATEIFQVAPSLHMVQVSKSKGDTLEFHKFYKKLSNSLEQVVWTNNEVKKETAK
4 | no binding | CIPK23-His (protein, UniProt Q93VD3 1-482) MASRTTPSRSTPSRSTPSGSSSGGRTRVGKYELGRTLGEGTFAKVKFARNVENGDNVAIKVIDKEKVLKNKMIAQIKREISTMKLIKHPNVIRMFEVMASKTKIYFVLEFVTGGELFDKISSNGRLKEDEARKYFQQLINAVDYCHSRGVYHRDLKPENLLLDANGALKVSDFGLSALPQQVREDGLLHTTCGTPNYVAPEVINNKGYDGAKADLWSCGVILFVLMAGYLPFEDSNLTSLYKKIFKAEFTCPPWFSASAKKLIKRILDPNPATRITFAEVIENEWFKKGYKAPKFENADVSLDDVDAIFDDSGESKNLVVERREEGLKTPVTMNAFELISTSQGLNLGSLFEKQMGLVKRKTRFTSKSSANEIVTKIEAAAAPMGFDVKTNNYKMKLTGEKSGRKGQLAVATEVFQVAPSLYMVEMRKSGGDTLEFHKFYKNLTTGLKDIVWKTIDEEKEEGTDGGGTNGAMANRTIAKQST
